Measured values from US7247611.
These are yes or no findings as the source states them, for the method shown. Some results given as binding are weak or reduced against the parent protein; the word gives no strength.

Tests used:
[1] = target: single chain urokinase-type plasminogen activator (UniProt P00749); test: 125I-scuPA preincubated with PAI-1, then peptide EEIIMD, on LM-TK- cells (FIG. 2)
[2] = target: single chain urokinase-type plasminogen activator (UniProt P00749); test: inferred from the cell binding experiments with scuPA, peptide and PAI-1
[3] = target: single chain urokinase-type plasminogen activator (UniProt P00749); test: 125I-scuPA on LM-TK- cells with peptide (FIG. 1A); indirect read-out of the peptide acting on scuPA

Row | Binder | binding [1] | binding [2] | binding [3]
1 | EEIIMD [peptide EEIIMD (SEQ ID NO: 3)] | binds | binds | 
2 | REIIMD [peptide REIIMD (SEQ ID NO: 4)] |  |  | binds
